Data reported in PMC3223157.
No constants are given. Whether binding was seen depends on the method and setting. Binding seen in cells or lysates may run through a third protein. Binding calls can cover weak binding; strength is not graded here.

The chains behind the UniProt entries cited, without tags or fusion partners. Where a name states a change or a piece, a line headed by the entry shows the natural chain unless it says otherwise.
UniProt Q14790: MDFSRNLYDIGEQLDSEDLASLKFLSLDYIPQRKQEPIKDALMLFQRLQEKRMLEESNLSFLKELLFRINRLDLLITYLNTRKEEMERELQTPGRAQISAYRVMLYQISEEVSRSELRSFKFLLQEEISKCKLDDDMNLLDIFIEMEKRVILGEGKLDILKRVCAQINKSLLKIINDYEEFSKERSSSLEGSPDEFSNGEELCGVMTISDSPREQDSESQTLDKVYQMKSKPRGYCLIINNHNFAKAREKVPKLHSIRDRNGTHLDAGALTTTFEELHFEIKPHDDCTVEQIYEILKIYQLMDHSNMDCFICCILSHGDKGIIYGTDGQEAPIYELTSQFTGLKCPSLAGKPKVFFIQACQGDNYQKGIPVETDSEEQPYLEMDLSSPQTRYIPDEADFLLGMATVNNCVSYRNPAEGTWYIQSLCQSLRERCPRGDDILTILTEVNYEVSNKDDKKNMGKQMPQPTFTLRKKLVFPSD
UniProt P55211: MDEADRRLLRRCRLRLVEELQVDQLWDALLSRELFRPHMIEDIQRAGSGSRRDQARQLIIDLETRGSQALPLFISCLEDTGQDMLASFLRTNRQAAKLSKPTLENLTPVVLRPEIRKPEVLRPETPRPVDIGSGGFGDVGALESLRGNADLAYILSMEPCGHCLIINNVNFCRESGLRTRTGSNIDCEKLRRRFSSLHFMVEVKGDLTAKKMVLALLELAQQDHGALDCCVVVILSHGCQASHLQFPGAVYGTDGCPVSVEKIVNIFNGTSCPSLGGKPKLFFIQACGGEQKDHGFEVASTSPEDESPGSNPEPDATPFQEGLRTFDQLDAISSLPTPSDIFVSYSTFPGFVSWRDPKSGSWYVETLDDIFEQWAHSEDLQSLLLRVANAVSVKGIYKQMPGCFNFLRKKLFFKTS

Molecular target: caspase 8 (A549 cells) (human (endogenous in A549)) (UniProt Q14790)
Assay: co-IP; cytosolic extract of A549 cells incubated with PBS, AdGFP or AdHSP for 24 h, then 20 ng/ml TNFalpha for 30 min; rabbit polyclonal anti-caspase 8 (1:200); immunoblot

For “caspase 9 (A549 cells) (from UniProt P55211) (enzyme)”, the binding was “binds”.
